Data taken from patent publication US20220202859A1, “CANCER TREATMENT USING CD38 INHIBITOR AND/OR LENALIDOMIDE AND T-CELLS EXPRESSING A CHIMERIC ANTIGEN RECEPTOR” (CRISPR THERAPEUTICS AG, priority 2020, published 2022).
No constants are given. Whether binding was seen depends on the method and setting. Some binding calls cover weakened binding; strength is not graded here.

Sequences of proteins named here, by UniProt entry; tags and fusion partners are left off. Residues count along the entry.
UniProt Q02223, residues 1-54: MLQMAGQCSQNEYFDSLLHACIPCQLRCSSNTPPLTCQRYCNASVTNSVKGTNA

Target: purified BCMA protein (UniProt Q02223)
Assay: immunohistochemistry, purified BCMA protein absorbed to a tissue slide, antibody at 5.0 and 50.0 µg/mL

B1: humanized mouse antibody from which the scFv portion of the CTX120 CAR was derived (antibody, V domains shown)
VH: QVQLVQSGAELKKPGASVKVSCKASGNTLTNYVIHWVRQAPGQRLEWMGYILPYNDLTKYSQKFQGRVTITRDKSASTAYMELSSLRSEDTAVYYCTRWDWDGFFDPWGQGTTVTVSS
VL: EIVMTQSPATLSVSPGERASISCRASQSLVHSNGNTHLHWYQQRPGQAPRLLIYSVSNRFSEVPARFSGSGSGTDFTLTISSVESEDFAVYYCSQTSHIPYTFGGGTKLEIK
In the case of B1, the binding is reported as “binds”.
